1 substance from paper PMC6127298 can be followed below.

The chains behind the UniProt entries cited, without tags or fusion partners. Where a name states a change or a piece, a line headed by the entry shows the natural chain unless it says otherwise.
UniProt Q9H3D4: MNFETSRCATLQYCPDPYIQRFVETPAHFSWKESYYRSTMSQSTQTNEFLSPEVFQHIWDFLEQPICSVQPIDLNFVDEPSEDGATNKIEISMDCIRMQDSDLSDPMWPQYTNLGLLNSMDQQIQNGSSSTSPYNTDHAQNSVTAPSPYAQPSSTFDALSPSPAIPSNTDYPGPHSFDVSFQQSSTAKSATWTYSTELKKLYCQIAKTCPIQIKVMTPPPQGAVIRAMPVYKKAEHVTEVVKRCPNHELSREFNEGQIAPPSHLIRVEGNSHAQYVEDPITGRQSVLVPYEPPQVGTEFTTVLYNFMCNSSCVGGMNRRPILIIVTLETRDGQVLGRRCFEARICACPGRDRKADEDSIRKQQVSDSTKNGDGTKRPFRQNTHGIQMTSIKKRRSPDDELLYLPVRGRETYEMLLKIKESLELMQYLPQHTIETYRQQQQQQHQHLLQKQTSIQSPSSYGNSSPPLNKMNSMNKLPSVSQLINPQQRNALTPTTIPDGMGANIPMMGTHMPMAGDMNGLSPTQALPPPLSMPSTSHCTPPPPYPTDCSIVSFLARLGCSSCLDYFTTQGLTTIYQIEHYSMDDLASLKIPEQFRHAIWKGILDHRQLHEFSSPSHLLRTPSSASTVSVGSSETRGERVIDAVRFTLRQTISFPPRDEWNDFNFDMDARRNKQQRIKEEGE
UniProt P48431: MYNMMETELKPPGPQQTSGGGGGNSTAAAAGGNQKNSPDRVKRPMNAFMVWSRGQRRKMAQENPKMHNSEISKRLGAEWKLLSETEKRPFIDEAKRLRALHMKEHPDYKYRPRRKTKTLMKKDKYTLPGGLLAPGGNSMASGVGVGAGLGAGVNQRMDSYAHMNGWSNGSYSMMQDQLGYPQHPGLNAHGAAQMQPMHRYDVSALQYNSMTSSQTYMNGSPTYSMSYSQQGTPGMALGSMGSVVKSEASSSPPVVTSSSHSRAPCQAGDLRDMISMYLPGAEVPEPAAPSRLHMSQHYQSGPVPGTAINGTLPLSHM

This assay has as its target TP63 (human (endogenous in SCC cell lines)) (UniProt Q9H3D4). Description: co-IP; 500 ug whole-cell lysate (RIPA buffer) incubated with indicated antibody or IgG overnight in cold room, Dynabeads protein A/G 4 h, Western blotting; also done in cells with CCAT1 downregulated (binding not affected). In general terms: Immunoblotting shows a protein as a band on a membrane.

These are yes or no findings as the source states them, for the method shown. Binding seen in cells or lysates may run through a third protein. A result given as binding can be weak or reduced; the word gives no strength.

As to SOX2 (from UniProt P48431 1-317), the binding entry is “binds”.
